Results taken from the supplement of paper PMC10849652.
This is one part of the list.

The chains behind the UniProt entries cited, without tags or fusion partners. Where a name states a change or a piece, a line headed by the entry shows the natural chain unless it says otherwise.
UniProt Q9BTE7: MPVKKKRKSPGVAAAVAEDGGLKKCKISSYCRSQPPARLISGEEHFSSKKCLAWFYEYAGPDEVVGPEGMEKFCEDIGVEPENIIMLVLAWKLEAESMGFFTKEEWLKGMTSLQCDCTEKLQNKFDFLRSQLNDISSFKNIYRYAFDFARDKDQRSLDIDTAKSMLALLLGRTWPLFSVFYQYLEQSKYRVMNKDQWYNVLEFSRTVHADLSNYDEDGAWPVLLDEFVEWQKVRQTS
UniProt Q9H0S4: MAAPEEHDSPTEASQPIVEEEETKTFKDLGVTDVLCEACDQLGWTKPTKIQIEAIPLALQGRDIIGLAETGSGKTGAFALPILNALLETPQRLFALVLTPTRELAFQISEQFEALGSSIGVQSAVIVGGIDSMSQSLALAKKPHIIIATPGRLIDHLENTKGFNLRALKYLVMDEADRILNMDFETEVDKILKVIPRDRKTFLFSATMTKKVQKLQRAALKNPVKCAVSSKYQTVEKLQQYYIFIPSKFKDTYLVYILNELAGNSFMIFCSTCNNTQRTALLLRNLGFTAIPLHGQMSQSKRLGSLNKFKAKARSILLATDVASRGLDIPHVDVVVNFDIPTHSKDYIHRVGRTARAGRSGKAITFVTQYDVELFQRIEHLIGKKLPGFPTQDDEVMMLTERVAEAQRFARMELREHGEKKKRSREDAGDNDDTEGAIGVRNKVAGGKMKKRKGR
UniProt Q9UHI6: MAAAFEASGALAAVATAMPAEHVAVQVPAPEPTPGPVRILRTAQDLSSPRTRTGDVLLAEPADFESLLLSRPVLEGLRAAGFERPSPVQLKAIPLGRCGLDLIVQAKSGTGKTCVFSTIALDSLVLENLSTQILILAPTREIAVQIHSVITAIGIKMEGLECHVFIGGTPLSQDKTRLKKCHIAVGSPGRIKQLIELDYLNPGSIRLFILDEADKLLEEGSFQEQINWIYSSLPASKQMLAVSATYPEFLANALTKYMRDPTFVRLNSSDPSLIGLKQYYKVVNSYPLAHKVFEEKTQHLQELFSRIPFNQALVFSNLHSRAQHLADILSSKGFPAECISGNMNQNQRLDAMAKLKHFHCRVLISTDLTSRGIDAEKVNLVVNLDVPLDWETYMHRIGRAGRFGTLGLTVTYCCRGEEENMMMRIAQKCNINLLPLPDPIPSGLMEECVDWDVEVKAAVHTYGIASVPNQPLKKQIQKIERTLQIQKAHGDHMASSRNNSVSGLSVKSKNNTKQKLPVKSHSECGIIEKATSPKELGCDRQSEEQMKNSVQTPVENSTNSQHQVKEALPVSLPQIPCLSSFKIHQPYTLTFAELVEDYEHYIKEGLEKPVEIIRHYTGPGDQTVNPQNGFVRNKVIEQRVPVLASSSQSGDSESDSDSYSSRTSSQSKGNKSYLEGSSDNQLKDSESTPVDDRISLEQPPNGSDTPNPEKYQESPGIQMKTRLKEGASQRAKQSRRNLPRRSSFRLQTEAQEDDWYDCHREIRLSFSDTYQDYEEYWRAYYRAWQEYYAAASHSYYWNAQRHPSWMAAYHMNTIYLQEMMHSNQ
UniProt Q9UK59: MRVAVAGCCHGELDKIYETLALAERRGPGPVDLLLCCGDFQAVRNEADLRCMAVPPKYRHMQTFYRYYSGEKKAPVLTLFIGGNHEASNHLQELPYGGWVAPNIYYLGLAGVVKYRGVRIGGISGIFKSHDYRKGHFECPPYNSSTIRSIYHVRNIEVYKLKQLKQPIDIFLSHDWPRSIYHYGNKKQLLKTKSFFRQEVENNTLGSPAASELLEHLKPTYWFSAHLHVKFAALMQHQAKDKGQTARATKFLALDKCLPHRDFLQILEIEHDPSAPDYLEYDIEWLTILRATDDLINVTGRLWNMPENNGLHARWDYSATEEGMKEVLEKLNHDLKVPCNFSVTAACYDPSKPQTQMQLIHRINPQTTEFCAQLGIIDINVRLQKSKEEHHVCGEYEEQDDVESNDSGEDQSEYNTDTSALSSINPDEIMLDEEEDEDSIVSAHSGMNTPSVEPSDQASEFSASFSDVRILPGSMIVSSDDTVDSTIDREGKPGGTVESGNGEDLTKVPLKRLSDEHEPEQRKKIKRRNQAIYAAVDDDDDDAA
UniProt Q6ICB0: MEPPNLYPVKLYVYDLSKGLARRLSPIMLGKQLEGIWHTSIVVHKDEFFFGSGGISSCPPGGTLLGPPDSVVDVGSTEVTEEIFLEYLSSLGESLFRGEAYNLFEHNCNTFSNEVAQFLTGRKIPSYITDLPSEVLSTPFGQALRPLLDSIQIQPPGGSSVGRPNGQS
UniProt Q6ZN54: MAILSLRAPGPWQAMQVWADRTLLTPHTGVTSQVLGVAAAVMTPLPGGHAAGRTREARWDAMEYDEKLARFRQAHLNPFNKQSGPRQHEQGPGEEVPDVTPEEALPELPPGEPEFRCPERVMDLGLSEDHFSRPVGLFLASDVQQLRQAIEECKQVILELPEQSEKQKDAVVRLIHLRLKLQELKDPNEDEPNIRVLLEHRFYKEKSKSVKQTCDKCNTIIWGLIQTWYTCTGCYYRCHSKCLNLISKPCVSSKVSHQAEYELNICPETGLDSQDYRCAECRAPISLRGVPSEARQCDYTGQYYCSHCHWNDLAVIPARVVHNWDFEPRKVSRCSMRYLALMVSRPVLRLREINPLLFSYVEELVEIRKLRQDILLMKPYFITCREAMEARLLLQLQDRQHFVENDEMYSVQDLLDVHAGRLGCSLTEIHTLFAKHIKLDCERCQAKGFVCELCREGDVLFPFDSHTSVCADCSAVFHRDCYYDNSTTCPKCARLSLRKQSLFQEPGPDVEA
UniProt Q9NV06: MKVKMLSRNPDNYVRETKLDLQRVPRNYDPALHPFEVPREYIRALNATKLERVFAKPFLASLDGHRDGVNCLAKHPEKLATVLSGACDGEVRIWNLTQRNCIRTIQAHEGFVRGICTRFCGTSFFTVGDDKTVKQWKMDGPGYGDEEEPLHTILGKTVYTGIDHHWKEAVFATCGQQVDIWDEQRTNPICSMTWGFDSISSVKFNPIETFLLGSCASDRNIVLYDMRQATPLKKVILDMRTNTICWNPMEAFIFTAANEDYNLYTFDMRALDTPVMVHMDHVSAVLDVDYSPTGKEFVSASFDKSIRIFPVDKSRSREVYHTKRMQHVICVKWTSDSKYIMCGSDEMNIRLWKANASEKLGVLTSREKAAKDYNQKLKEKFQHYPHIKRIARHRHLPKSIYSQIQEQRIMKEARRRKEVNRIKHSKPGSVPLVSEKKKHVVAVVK
UniProt O75064: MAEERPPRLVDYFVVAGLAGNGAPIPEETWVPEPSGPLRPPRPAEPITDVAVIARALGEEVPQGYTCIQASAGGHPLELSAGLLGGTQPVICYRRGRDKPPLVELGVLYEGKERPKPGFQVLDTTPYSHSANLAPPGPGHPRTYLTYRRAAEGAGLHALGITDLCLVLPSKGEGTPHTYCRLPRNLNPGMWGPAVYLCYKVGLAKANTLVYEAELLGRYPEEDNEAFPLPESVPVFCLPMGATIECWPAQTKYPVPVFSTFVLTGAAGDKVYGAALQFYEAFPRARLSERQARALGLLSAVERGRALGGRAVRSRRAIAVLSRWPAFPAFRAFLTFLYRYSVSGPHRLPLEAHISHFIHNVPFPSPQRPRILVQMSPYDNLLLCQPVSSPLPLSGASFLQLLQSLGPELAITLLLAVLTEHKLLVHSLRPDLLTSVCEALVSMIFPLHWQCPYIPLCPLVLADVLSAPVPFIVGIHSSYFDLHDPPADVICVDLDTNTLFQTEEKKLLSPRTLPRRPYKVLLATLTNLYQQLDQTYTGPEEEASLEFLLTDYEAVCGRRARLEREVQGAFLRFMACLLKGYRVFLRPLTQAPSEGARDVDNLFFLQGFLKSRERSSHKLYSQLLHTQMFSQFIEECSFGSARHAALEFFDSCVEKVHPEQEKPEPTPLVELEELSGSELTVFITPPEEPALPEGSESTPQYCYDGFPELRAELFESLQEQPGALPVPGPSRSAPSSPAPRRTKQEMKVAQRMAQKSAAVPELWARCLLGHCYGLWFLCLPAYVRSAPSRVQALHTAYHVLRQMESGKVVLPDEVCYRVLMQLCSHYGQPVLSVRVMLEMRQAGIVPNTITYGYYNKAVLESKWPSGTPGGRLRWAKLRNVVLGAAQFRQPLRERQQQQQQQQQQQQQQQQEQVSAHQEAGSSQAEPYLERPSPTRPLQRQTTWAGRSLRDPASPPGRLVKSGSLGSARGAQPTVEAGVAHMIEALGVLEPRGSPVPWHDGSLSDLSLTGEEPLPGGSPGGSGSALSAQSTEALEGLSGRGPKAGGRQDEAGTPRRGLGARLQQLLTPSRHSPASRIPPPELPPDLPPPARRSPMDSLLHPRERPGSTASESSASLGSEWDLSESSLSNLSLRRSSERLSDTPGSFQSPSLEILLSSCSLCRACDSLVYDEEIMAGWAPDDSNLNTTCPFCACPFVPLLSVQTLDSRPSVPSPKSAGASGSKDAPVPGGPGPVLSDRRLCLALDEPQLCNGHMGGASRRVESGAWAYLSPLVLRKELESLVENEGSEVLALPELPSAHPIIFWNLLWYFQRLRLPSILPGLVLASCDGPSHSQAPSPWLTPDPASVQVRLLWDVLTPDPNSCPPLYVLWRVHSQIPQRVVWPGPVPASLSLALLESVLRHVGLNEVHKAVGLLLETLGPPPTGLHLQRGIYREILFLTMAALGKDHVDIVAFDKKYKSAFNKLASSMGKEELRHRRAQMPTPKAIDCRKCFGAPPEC
UniProt Q9NUI1: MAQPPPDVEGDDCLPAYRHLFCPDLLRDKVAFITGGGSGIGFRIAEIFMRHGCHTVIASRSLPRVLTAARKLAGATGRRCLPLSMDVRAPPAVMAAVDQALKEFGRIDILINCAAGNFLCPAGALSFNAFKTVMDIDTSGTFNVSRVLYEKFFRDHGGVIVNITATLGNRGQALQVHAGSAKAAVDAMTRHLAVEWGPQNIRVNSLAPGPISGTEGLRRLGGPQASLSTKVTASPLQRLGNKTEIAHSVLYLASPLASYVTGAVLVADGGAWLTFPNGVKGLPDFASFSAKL
UniProt Q8NA75: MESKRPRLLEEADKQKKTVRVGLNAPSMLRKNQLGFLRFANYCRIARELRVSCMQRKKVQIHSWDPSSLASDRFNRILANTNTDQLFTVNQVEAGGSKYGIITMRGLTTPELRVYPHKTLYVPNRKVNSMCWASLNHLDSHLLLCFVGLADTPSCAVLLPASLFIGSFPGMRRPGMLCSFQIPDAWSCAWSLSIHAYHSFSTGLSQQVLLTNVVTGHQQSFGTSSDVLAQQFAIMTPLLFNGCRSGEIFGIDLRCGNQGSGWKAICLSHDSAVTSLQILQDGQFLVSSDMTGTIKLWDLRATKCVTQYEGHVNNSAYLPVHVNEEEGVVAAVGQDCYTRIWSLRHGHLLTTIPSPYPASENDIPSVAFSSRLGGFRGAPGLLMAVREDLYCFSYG
UniProt O94830: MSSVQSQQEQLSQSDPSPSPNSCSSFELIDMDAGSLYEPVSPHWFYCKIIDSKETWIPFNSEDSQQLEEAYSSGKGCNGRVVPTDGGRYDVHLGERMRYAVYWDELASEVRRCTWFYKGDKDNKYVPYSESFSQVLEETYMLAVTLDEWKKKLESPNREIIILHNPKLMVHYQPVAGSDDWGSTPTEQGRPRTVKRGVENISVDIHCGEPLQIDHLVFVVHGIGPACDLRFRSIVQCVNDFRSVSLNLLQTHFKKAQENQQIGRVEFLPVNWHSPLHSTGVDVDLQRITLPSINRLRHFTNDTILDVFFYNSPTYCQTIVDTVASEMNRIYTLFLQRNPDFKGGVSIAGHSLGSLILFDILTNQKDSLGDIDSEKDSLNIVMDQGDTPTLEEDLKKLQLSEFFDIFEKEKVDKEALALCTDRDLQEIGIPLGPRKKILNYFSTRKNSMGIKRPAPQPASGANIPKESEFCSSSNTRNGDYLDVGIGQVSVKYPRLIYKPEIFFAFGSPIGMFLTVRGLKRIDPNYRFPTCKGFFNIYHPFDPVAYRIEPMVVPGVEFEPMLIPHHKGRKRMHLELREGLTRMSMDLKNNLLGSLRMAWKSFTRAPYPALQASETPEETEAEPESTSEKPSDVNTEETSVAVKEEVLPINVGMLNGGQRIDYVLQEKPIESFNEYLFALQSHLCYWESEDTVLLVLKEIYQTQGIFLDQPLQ
UniProt Q9UJU6: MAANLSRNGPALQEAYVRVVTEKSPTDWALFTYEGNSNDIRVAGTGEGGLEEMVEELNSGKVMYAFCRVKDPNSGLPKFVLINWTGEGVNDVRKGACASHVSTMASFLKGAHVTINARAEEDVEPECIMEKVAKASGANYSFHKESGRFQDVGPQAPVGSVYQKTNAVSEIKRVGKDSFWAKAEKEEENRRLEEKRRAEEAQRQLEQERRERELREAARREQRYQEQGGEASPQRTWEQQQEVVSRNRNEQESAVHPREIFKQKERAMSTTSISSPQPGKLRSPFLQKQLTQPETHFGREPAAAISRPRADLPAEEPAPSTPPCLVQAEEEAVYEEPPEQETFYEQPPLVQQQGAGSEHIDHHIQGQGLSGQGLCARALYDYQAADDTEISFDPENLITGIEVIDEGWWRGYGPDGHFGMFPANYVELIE

Legend:
Test in all cases: log2 fold change, soluble protein after heating vs DMSO (PISA); higher = thermal stabilisation; K562 lysate, 10 uM; active = over 0.2 and 3.5 SD of the protein, either way, in both replicates (recomputed)
[1] = compound: C1=CC=C(C=C1)[C@H](COC2=CC3=C(C=C2)NC(=O)N3)NC(=O)C4=CC=CN(C4=O)CC5=CC(=C(C=C5)F)F
In short: (§1)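 Log-two fold change in thermal stability relative to solvent controls is reported from duplicates. For each sample, crude K562 extract from dounce-homogenised pellets in PBS pH 7.4 with 1 mM MgCl2, at 1 mg/mL protein, was treated with 10 μM compound for 30 min. Aliquots heated for 3 min across 48°C-58°C were pooled, brought to 0.5% NP-40 at 4°C and cleared at 21,000xg for 90 min. The supernatant was quantified by TMTpro 16plex LC-MS/MS with channel sums equalised.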

[2] = compound: CC1=C(SC2=C1C(=N[C@H](C3=NN=C(N32)C)CC(=O)N)C4=CC=C(C=C4)Cl)C
In short: as §1

[3] = compound: CC1=C2C(=CC=C1)N=C(N(C2=O)C3=CC=CC=C3C)CN4C=NC5=C(N=CN=C54)N
In short: as §1

[4] = compound: Cc1sc2c(c1C)C(c1ccc(Cl)cc1)=N[C@@H](CC(=O)OC(C)(C)C)c1nnc(C)n1-2
In short: as §1

[5] = compound: c1ccc([C@@H]2C[C@H]2NC2CCNCC2)cc1
In short: as §1

Measured: log2 fold change

DCUN1D5 (UniProt Q9BTE7)
inactive: [1] -0.01 | [2] 0.209 | [3] 0 | [4] -0.006 | [5] 0.113

DCTN3 (UniProt O75935)
inactive: [1] 0.008 | [2] -0.024 | [3] 0.031 | [4] 0.026 | [5] 0.075

DDX47 (UniProt Q9H0S4)
inactive: [1] 0.039 | [2] 0.022 | [3] -0.015 | [4] -0.024 | [5] 0.034

DDX46, A0A0C4DG89
inactive: [1] -0.148 | [2] 0.067 | [3] -0.054 | [4] 0.11 | [5] 0.064

DCAF12L2 (UniProt Q5VW00)
inactive: [1] 0.014 | [2] 0.112 | [3] -0.014

DDX20 (UniProt Q9UHI6)
inactive: [1] -0.008 | [2] -0.064 | [3] -0.006 | [4] 0.027 | [5] 0.077

DCAF10 (UniProt Q5QP82)
inactive: [1] -0.019 | [2] 0.017 | [3] 0.029 | [4] -0.202 | [5] 0.201

DEF6 (UniProt Q9H4E7)
inactive: [1] -0.061 | [2] -0.05 | [3] -0.027 | [4] 0.036 | [5] -0.037

DCTD isoform 2 (UniProt P32321)
inactive: [1] -0.013 | [2] 0.012 | [3] 0.004 | [4] -0.006 | [5] 0.025

DBT (UniProt P11182)
inactive: [1] -0.014 | [2] 0.018 | [3] -0.049 | [4] 0.051 | [5] -0.014

DCTN1 (UniProt Q14203)
inactive: [1] -0.018 | [2] -0.017 | [3] -0.009 | [4] 0 | [5] 0.034

DDX6 (UniProt P26196)
inactive: [1] 0.012 | [2] 0.011 | [3] 0.002 | [4] 0.012 | [5] -0.015

DDX31 (UniProt Q9H8H2)
inactive: [1] 0.008 | [2] -0.08 | [3] -0.059 | [4] -0.014 | [5] 0.018

DCP2 (UniProt Q8IU60)
inactive: [1] 0.006 | [2] -0.001 | [3] 0.041 | [4] 0.026 | [5] 0.048

DAB2 (UniProt P98082)
inactive: [1] -0.018 | [2] -0.002 | [3] 0.025 | [4] -0.028 | [5] 0.018

DFFA isoform 2 (UniProt O00273)
inactive: [1] 0.105 | [2] 0.165 | [3] -0.33 | [4] 0.196 | [5] -0.021

Eleven neighbouring records out of the list so far, for reference:
DDX46, A0A0C4DG89
inactive: [1] -0.148 | [2] 0.067 | [3] -0.054 | [4] 0.11 | [5] 0.064

DCAF12L2 (UniProt Q5VW00)
inactive: [1] 0.014 | [2] 0.112 | [3] -0.014

DDX20 (UniProt Q9UHI6)
inactive: [1] -0.008 | [2] -0.064 | [3] -0.006 | [4] 0.027 | [5] 0.077

DCAF10 (UniProt Q5QP82)
inactive: [1] -0.019 | [2] 0.017 | [3] 0.029 | [4] -0.202 | [5] 0.201

DEF6 (UniProt Q9H4E7)
inactive: [1] -0.061 | [2] -0.05 | [3] -0.027 | [4] 0.036 | [5] -0.037

DCTD isoform 2 (UniProt P32321)
inactive: [1] -0.013 | [2] 0.012 | [3] 0.004 | [4] -0.006 | [5] 0.025

DBT (UniProt P11182)
inactive: [1] -0.014 | [2] 0.018 | [3] -0.049 | [4] 0.051 | [5] -0.014

DCTN1 (UniProt Q14203)
inactive: [1] -0.018 | [2] -0.017 | [3] -0.009 | [4] 0 | [5] 0.034

DDX6 (UniProt P26196)
inactive: [1] 0.012 | [2] 0.011 | [3] 0.002 | [4] 0.012 | [5] -0.015

DDX31 (UniProt Q9H8H2)
inactive: [1] 0.008 | [2] -0.08 | [3] -0.059 | [4] -0.014 | [5] 0.018

DCP2 (UniProt Q8IU60)
inactive: [1] 0.006 | [2] -0.001 | [3] 0.041 | [4] 0.026 | [5] 0.048

Next records follow:

DCAF7 (UniProt P61962)
inactive: [1] -0.012 | [2] -0.004 | [3] -0.024 | [4] 0.046 | [5] 0

DDX52 (UniProt Q9Y2R4)
inactive: [1] 0.012 | [2] -0.066 | [3] 0.019 | [4] -0.051 | [5] -0.111

DENND1C (UniProt Q8IV53)
inactive: [1] 0.094 | [2] 0.261 | [3] -0.11 | [4] -0.208

DAD1 (UniProt P61803)
inactive: [1] -0.171 | [2] -0.041 | [3] 0.278 | [4] -0.38 | [5] -0.023

DBR1 (UniProt Q9UK59)
inactive: [1] 0.018 | [2] 0.018 | [3] -0.037 | [4] -0.021 | [5] -0.088

DCTN2 isoform 3 (UniProt Q13561)
inactive: [1] 0.003 | [2] -0.063 | [3] -0.006 | [4] -0.017 | [5] -0.035

DESI1 (UniProt Q6ICB0)
inactive: [1] 0.035 | [2] -0.002 | [3] -0.025 | [4] 0.142 | [5] 0.014

DCAF8 (UniProt Q5TAQ9)
inactive: [1] 0.016 | [2] -0.007 | [3] -0.035 | [4] 0.007 | [5] -0.028

CYSTM1 (UniProt Q9H1C7)
inactive: [1] 0.122 | [2] -0.041 | [3] 0.021 | [4] -0.038 | [5] -0.075

DDOST (UniProt P39656)
inactive: [1] -0.017 | [2] 0 | [3] 0.016 | [4] -0.057 | [5] -0.041

DENND1A isoform 6 (UniProt Q8TEH3)
inactive: [1] -0.004 | [2] -0.009 | [3] 0.203 | [4] 0.071

DAZAP1 (UniProt Q96EP5)
inactive: [1] 0.011 | [2] -0.046 | [3] 0.005 | [4] 0.088 | [5] -0.086

DEF8 (UniProt Q6ZN54)
inactive: [1] -0.228 | [2] -0.001 | [3] -0.047 | [4] -0.017

DCTN5 (UniProt Q9BTE1)
inactive: [1] 0.032 | [2] 0.016 | [3] 0.073 | [4] 0.028 | [5] -0.053

DCAF13 (UniProt Q9NV06)
inactive: [1] 0.112 | [2] 0.006 | [3] -0.049 | [4] 0.006 | [5] 0.011

DDX10 (UniProt Q13206)
inactive: [1] 0.096 | [2] -0.081 | [3] -0.017 | [4] -0.134 | [5] 0.056

DENND4C (UniProt Q5VZ89)
inactive: [1] 0.012 | [2] -0.016 | [3] 0.048 | [4] -0.01 | [5] 0.026

DCAF11 (UniProt Q8TEB1)
inactive: [1] 0.02 | [2] -0.002 | [3] 0.046 | [4] 0.046 | [5] 0.008

DCAF12 (UniProt Q5T6F0)
inactive: [1] 0.063 | [2] 0.011 | [3] -0.07 | [4] -0.08

DCAF16 (UniProt Q9NXF7)
inactive: [1] 0.067 | [2] 0.001 | [3] -0.052 | [4] -0.047 | [5] 0.061

DBN1 (UniProt Q16643)
inactive: [1] -0.006 | [2] 0.004 | [3] -0.008 | [4] -0.016 | [5] -0.004

DDX17 (UniProt Q92841)
inactive: [1] 0 | [2] 0.024 | [3] 0.019 | [4] 0.047 | [5] -0.02

DCAF15 (UniProt Q66K64)
inactive: [1] -0.069 | [2] -0.01 | [3] -0.006 | [4] 0.011 | [5] 0.076

DES (UniProt P17661)
inactive: [1] 0 | [2] 0.05 | [3] 0.062 | [4] -0.219 | [5] -0.131

DDX42 (UniProt Q86XP3)
inactive: [1] 0.015 | [2] 0.016 | [3] 0.052 | [4] 0.022 | [5] 0.03

DARS (UniProt P14868)
inactive: [1] -0.01 | [2] 0.001 | [3] 0.037 | [4] 0.043 | [5] 0.025

DDX59 (UniProt Q5T1V6)
inactive: [1] -0.021 | [2] 0.024 | [3] 0.025 | [4] 0.016 | [5] 0.02

DENND4B (UniProt O75064)
inactive: [1] 0.026 | [2] -0.013 | [3] -0.008 | [4] 0.025 | [5] -0.048

DDX23 (UniProt Q9BUQ8)
inactive: [1] -0.027 | [2] 0.01 | [3] -0.013 | [4] 0.016 | [5] 0.018

DECR2 (UniProt Q9NUI1)
inactive: [1] -0.057 | [2] 0.06 | [3] 0.019 | [4] 0.039 | [5] 0.082

DCAF4L2 (UniProt Q8NA75)
inactive: [1] 0.166 | [2] 0.101 | [3] 0.223 | [4] -0.031 | [5] 0.02

DDX54 isoform 2 (UniProt Q8TDD1)
inactive: [1] -0.131 | [2] 0.041 | [3] 0.09 | [4] 0.052 | [5] 0.008

DAGLB (UniProt Q8NCG7)
inactive: [1] 0.016 | [2] 0.049 | [3] 0.026 | [4] 0.053 | [5] 0.014

DDHD2 (UniProt O94830)
inactive: [1] 0 | [2] 0.017 | [3] -0.007 | [4] -0.022 | [5] 0.002

DEK (UniProt P35659)
inactive: [1] 0.011 | [2] 0.011 | [3] 0.033 | [4] 0.013 | [5] 0.017

DBNL isoform 3 (UniProt Q9UJU6)
inactive: [1] 0.005 | [2] 0.007 | [3] -0.008 | [4] -0.01 | [5] 0.038

DEGS1 (UniProt O15121)
inactive: [1] 0.054 | [2] 0.017 | [3] 0.083 | [4] 0.054 | [5] 0.009

DDX41 (UniProt Q9UJV9)
inactive: [1] 0.013 | [2] -0.042 | [3] -0.025 | [4] 0.01 | [5] -0.001
